What all share (assay): co-IP; lysates of cells co-transfected with V5- and HA-tagged receptors; precipitated with anti-V5 agarose for 3 hours at 4°C; blotted with anti-HA mAb; cells untreated or treated with GS-9620 (0.1, 1 and 5 uM)
The target in experiment [1] is human TLR7, wild type, with C-terminal V5 or HA tag (human) (UniProt Q9NYK1).
The target in experiment [2] is human TLR7 F408A with C-terminal V5 or HA tag (human) (UniProt Q9NYK1).
Experiment [3] has as its target human TLR7 D555A with C-terminal V5 or HA tag (human) (UniProt Q9NYK1).

Changes are numbered by the printed parent chain. Names and notes keep the numbering of the source. These are yes or no findings as the source states them, for the method shown. Binding seen in cells or lysates may run through a third protein. Some results given as binding are weak or reduced against the parent protein; the word gives no strength. Tags and fused reporters may be left off the sequences shown.

B1: full-length recombinant human TLR7 (residues 27-1049) with N-terminal 6HIS tag (receptor, UniProt Q9NYK1 27-1049, looked up)
chain: ARWFPKTLPCDVTLDVPKNHVIVDCTDKHLTEIPGGIPTNTTNLTLTINHIPDISPASFHRLDHLVEIDFRCNCVPIPLGSKNNMCIKRLQIKPRSFSGLTYLKSLYLDGNQLLEIPQGLPPSLQLLSLEANNIFSIRKENLTELANIEILYLGQNCYYRNPCYVSYSIEKDAFLNLTKLKVLSLKDNNVTAVPTVLPSTLTELYLYNNMIAKIQEDDFNNLNQLQILDLSGNCPRCYNAPFPCAPCKNNSPLQIPVNAFDALTELKVLRLHSNSLQHVPPRWFKNINKLQELDLSQNFLAKEIGDAKFLHFLPSLIQLDLSFNFELQVYRASMNLSQAFSSLKSLKILRIRGYVFKELKSFNLSPLHNLQNLEVLDLGTNFIKIANLSMFKQFKRLKVIDLSVNKISPSGDSSEVGFCSNARTSVESYEPQVLEQLHYFRYDKYARSCRFKNKEASFMSVNESCYKYGQTLDLSKNSIFFVKSSDFQHLSFLKCLNLSGNLISQTLNGSEFQPLAELRYLDFSNNRLDLLHSTAFEELHKLEVLDISSNSHYFQSEGITHMLNFTKNLKVLQKLMMNDNDISSSTSRTMESESLRTLEFRGNHLDVLWREGDNRYLQLFKNLLKLEELDISKNSLSFLPSGVFDGMPPNLKNLSLAKNGLKSFSWKKLQCLKNLETLDLSHNQLTTVPERLSNCSRSLKNLILKNNQIRSLTKYFLQDAFQLRYLDLSSNKIQMIQKTSFPENVLNNLKMLLLHHNRFLCTCDAVWFVWWVNHTEVTIPYLATDVTCVGPGAHKGQSVISLDLYTCELDLTNLILFSLSISVSLFLMVMMTASHLYFWDVWYIYHFCKAKIKGYQRLISPDCCYDAFIVYDTKDPAVTEWVLAELVAKLEDPREKHFNLCLEERDWLPGQPVLENLSQSIQLSKKTVFVMTDKYAKTENFKIAFYLSHQRLMDEKVDVIILIFLEKPFQKSKFLQLRKRLCGSSVLEWPTNPQAHPYFWQCLKNALATDNHVAYSQVFKETV
notes: human Toll-like receptor 7 (TLR7), residues 27-1049; also called recTLR7; recombinant TLR7
On to B1, for which the binding result in experiment [1] is given as “binds”.

B2: human TLR7 F408A with C-terminal V5 or HA tag (receptor, UniProt Q9NYK1 27-1049)
chain: B1 chain with F382A
For the molecule B2, the binding result in experiment [2] is “binds”.

B3: human TLR7 D555A with C-terminal V5 or HA tag (receptor, UniProt Q9NYK1 27-1049)
chain: B1 chain with D529A
For B3, in experiment [3], the binding entry is recorded as “binds”.
